Measured values as given in patent US20060222657A1, “Polypeptide transduction and fusogenic peptides” (priority 2003, published 2006).

What was measured:
tex.loxP.EG cells = assay: TAT-Cre mediated recombination of lox-stop-lox eGFP reporter, flow cytometry of live cells; assay type: cell-based, murine
mammalian cells = assay: TAT-Cre transduction efficiency and cytotoxicity with endosomal release agents (summary statement); assay type: cell-based

GLFGAIAGFIENGWEGMIDGGRKKRRQRRR [HA2-TAT]
effect of peptide on TAT-Cre recombination (in words) (tex.loxP.EG cells): efficiency of TAT-Cre recombination is enhanced
increase in recombination, TAT-Cre in combination with peptide (tex.loxP.EG cells): > 10 fold
cytotoxicity (mammalian cells): absence of cytotoxicity
effect on transduction efficiency of TAT-Cre (mammalian cells): greater than ten-fold
